Experimental data taken from publication PMC2664925.
Results are given in words; binding and its absence hold for the method and conditions named. Binding seen in cells or lysates may run through a third protein. Some entries that bind do so weakly or less than the wild type.

Amino acid sequences for entries named in this document (tags omitted).
UniProt P02795: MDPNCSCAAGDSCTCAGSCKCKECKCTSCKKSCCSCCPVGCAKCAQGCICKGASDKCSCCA
UniProt P62330: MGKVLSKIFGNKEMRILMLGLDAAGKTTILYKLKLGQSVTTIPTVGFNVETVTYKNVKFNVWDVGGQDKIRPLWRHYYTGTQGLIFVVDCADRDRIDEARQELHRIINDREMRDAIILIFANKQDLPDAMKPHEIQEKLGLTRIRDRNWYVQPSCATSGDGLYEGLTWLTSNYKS

Target: GST-MT-2 (UniProt P02795)
Test: pull-down; GST-MT-2 beads; about 450 µg of protein lysate of normal (GM05659) or NPC mutant fibroblasts (GM03123, GM17923, GM18436) per assay; immunoblot probed for ARF6; only the target purified

For “ARF6 (endogenous, GTP-bound) (from UniProt P62330 1-175)”, the binding was “binds”.
